Reference: PubChem BioAssay AID1259308 (NCATS, 2017)
Screen: 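Candidate targets for better recombinant protein yield in mammalian cells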 (primary screen). System: human HEK293 embryonic kidney cells stably expressing firefly luciferase (HEK-CMV-Luc2-Hygro). Reagents: single siRNA against human genes, 0.8 pmol siRNA per well. Timing: 72 h. Detection: 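Luciferase light (ONE-Glo) measured on one replicate plate set and viability (CellTiter-Glo) on the other, scaled to a negative control siRNA, with robust z-scores and luciferase per cell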. Reading the numbers: total luciferase, z-score and total luciferase, % of control: higher = more reporter protein produced. Hit rule: 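An siRNA counts as active if its total luciferase robust z-score exceeds 3; genes with two or more such siRNAs out of three were retested with fresh siRNAs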. Meaning of the calls: active = raised luciferase; inactive = no rise.
This is a random part of about 59,000 reagents tested. Of all reagents, about 1,510 (2.6%) are marked active. 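Calls use total luciferase alone and ignore viability, so some active siRNAs may act by altering cell number.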 Reagents against one gene are numbered here. Further read-outs or replicates are left out here.

{"Gene": "FOXR1 (GeneID 283150)", "siRNA no.": 1, "total luciferase, z-score": -1.83, "total luciferase, % of control": 45.5, "Outcome": "inactive"}
{"Gene": "FOXR1 (GeneID 283150)", "siRNA no.": 2, "total luciferase, z-score": -1.31, "total luciferase, % of control": 55.8, "Outcome": "inactive"}
{"Gene": "FOXR1 (GeneID 283150)", "siRNA no.": 3, "total luciferase, z-score": -0.945, "total luciferase, % of control": 63.1, "Outcome": "inactive"}
{"Gene": "UBXN8 (GeneID 7993)", "siRNA no.": 1, "total luciferase, z-score": -0.162, "total luciferase, % of control": 78.7, "Outcome": "inactive"}
{"Gene": "UBXN8 (GeneID 7993)", "siRNA no.": 2, "total luciferase, z-score": 0.046, "total luciferase, % of control": 82.8, "Outcome": "inactive"}
{"Gene": "UBXN8 (GeneID 7993)", "siRNA no.": 3, "total luciferase, z-score": 0.297, "total luciferase, % of control": 87.8, "Outcome": "inactive"}
{"Gene": "FOXB1 (GeneID 27023)", "siRNA no.": 1, "total luciferase, z-score": 0.347, "total luciferase, % of control": 88.8, "Outcome": "inactive"}
{"Gene": "FOXB1 (GeneID 27023)", "siRNA no.": 2, "total luciferase, z-score": -2.01, "total luciferase, % of control": 42, "Outcome": "inactive"}
{"Gene": "FOXB1 (GeneID 27023)", "siRNA no.": 3, "total luciferase, z-score": 2.53, "total luciferase, % of control": 132, "Outcome": "inactive"}
{"Gene": "RUNX1T1 (GeneID 862)", "siRNA no.": 1, "total luciferase, z-score": 0.976, "total luciferase, % of control": 101, "Outcome": "inactive"}
{"Gene": "RUNX1T1 (GeneID 862)", "siRNA no.": 2, "total luciferase, z-score": 1.13, "total luciferase, % of control": 104, "Outcome": "inactive"}
{"Gene": "RUNX1T1 (GeneID 862)", "siRNA no.": 3, "total luciferase, z-score": -0.244, "total luciferase, % of control": 77, "Outcome": "inactive"}
{"Gene": "SNX21 (GeneID 90203)", "siRNA no.": 1, "total luciferase, z-score": 2.61, "total luciferase, % of control": 134, "Outcome": "inactive"}
{"Gene": "SNX21 (GeneID 90203)", "siRNA no.": 2, "total luciferase, z-score": 0.959, "total luciferase, % of control": 101, "Outcome": "inactive"}
{"Gene": "SNX21 (GeneID 90203)", "siRNA no.": 3, "total luciferase, z-score": -0.906, "total luciferase, % of control": 63.9, "Outcome": "inactive"}
{"Gene": "SULT1C5P (GeneID 151234)", "siRNA no.": 1, "total luciferase, z-score": -0.573, "total luciferase, % of control": 70.5, "Outcome": "inactive"}
{"Gene": "SULT1C5P (GeneID 151234)", "siRNA no.": 2, "total luciferase, z-score": 1.63, "total luciferase, % of control": 114, "Outcome": "inactive"}
{"Gene": "SULT1C5P (GeneID 151234)", "siRNA no.": 3, "total luciferase, z-score": -1.03, "total luciferase, % of control": 61.4, "Outcome": "inactive"}
{"Gene": "CYP27C1 (GeneID 339761)", "siRNA no.": 1, "total luciferase, z-score": 0.0979, "total luciferase, % of control": 83.8, "Outcome": "inactive"}
{"Gene": "CYP27C1 (GeneID 339761)", "siRNA no.": 2, "total luciferase, z-score": 0.201, "total luciferase, % of control": 85.9, "Outcome": "inactive"}
{"Gene": "CYP27C1 (GeneID 339761)", "siRNA no.": 3, "total luciferase, z-score": -0.702, "total luciferase, % of control": 67.9, "Outcome": "inactive"}
{"Gene": "HAT1 (GeneID 8520)", "siRNA no.": 1, "total luciferase, z-score": -0.971, "total luciferase, % of control": 62.6, "Outcome": "inactive"}
{"Gene": "HAT1 (GeneID 8520)", "siRNA no.": 2, "total luciferase, z-score": -0.334, "total luciferase, % of control": 75.2, "Outcome": "inactive"}
{"Gene": "HAT1 (GeneID 8520)", "siRNA no.": 3, "total luciferase, z-score": -0.512, "total luciferase, % of control": 71.7, "Outcome": "inactive"}
{"Gene": "ABCA6 (GeneID 23460)", "siRNA no.": 1, "total luciferase, z-score": -0.768, "total luciferase, % of control": 66.6, "Outcome": "inactive"}
{"Gene": "ABCA6 (GeneID 23460)", "siRNA no.": 2, "total luciferase, z-score": 0.415, "total luciferase, % of control": 90.1, "Outcome": "inactive"}
{"Gene": "ABCA6 (GeneID 23460)", "siRNA no.": 3, "total luciferase, z-score": 0.536, "total luciferase, % of control": 92.5, "Outcome": "inactive"}
{"Gene": "MCF2 (GeneID 4168)", "siRNA no.": 1, "total luciferase, z-score": -0.196, "total luciferase, % of control": 78, "Outcome": "inactive"}
{"Gene": "MCF2 (GeneID 4168)", "siRNA no.": 2, "total luciferase, z-score": 0.111, "total luciferase, % of control": 84.1, "Outcome": "inactive"}
{"Gene": "MCF2 (GeneID 4168)", "siRNA no.": 3, "total luciferase, z-score": 0.541, "total luciferase, % of control": 92.7, "Outcome": "inactive"}
{"Gene": "TMEM255A (GeneID 55026)", "siRNA no.": 1, "total luciferase, z-score": -1.11, "total luciferase, % of control": 59.7, "Outcome": "inactive"}
{"Gene": "TMEM255A (GeneID 55026)", "siRNA no.": 2, "total luciferase, z-score": 1.56, "total luciferase, % of control": 113, "Outcome": "inactive"}
{"Gene": "TMEM255A (GeneID 55026)", "siRNA no.": 3, "total luciferase, z-score": 3.75, "total luciferase, % of control": 157, "Outcome": "active"}
{"Gene": "MITD1 (GeneID 129531)", "siRNA no.": 1, "total luciferase, z-score": 3.05, "total luciferase, % of control": 143, "Outcome": "active"}
{"Gene": "MITD1 (GeneID 129531)", "siRNA no.": 2, "total luciferase, z-score": -0.0553, "total luciferase, % of control": 80.8, "Outcome": "inactive"}
{"Gene": "MITD1 (GeneID 129531)", "siRNA no.": 3, "total luciferase, z-score": 0.516, "total luciferase, % of control": 92.1, "Outcome": "inactive"}
{"Gene": "EIF3CL (GeneID 728689)", "siRNA no.": 1, "total luciferase, z-score": -2.51, "total luciferase, % of control": 31.9, "Outcome": "inactive"}
{"Gene": "EIF3CL (GeneID 728689)", "siRNA no.": 2, "total luciferase, z-score": -1.93, "total luciferase, % of control": 43.5, "Outcome": "inactive"}
{"Gene": "EIF3CL (GeneID 728689)", "siRNA no.": 3, "total luciferase, z-score": -2.65, "total luciferase, % of control": 29.2, "Outcome": "inactive"}
{"Gene": "MAN2C1 (GeneID 4123)", "siRNA no.": 1, "total luciferase, z-score": -0.264, "total luciferase, % of control": 76.6, "Outcome": "inactive"}
{"Gene": "MAN2C1 (GeneID 4123)", "siRNA no.": 2, "total luciferase, z-score": 0.849, "total luciferase, % of control": 98.8, "Outcome": "inactive"}
{"Gene": "MAN2C1 (GeneID 4123)", "siRNA no.": 3, "total luciferase, z-score": 2.44, "total luciferase, % of control": 130, "Outcome": "inactive"}

Entries above marked active:
{"Gene": "TMEM255A (GeneID 55026)", "siRNA no.": 3, "total luciferase, z-score": 3.75, "total luciferase, % of control": 157, "Outcome": "active"}
{"Gene": "MITD1 (GeneID 129531)", "siRNA no.": 1, "total luciferase, z-score": 3.05, "total luciferase, % of control": 143, "Outcome": "active"}
